Laboratory results from article PMC10785272 (ACS Omega, 2023).

System: HeLa cells
Experiment: In vitro cytotoxicity MTS assay with HeLa cells
Type: cell-based, human
Conditions: HeLa cell line, 48 h incubation, mean ± SD (n = 3)
In short: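 HeLa cells were grown in EMEM with 10% FBS, nonessential amino acids and sodium pyruvate at 37 °C in 5% CO2. They were seeded at 40000 cells/well and left 24 h, then exposed 48 h to freshly prepared medium holding test compound over 0–100 or 0–1000 µM. MTS was added for 3 h and absorbance read at 490 nm. IC50 was obtained by curve fitting; runs were in triplicate.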

N.N.[Cl][Pt][Cl] [cisplatin, cis-diamminedichloridoplatinum(II), reference compound]
IC50: 15.5 ± 2.3 µM
